Patent US7528123B1, “Estrogenic estra-1,3,5(10)-trienes with differential effects on the alpha and beta estrogen receptors, having a linear hydrocarbon chain of from 5-9 carbon atoms in position 11” (N.V. Organon, priority 1998, dated 2009)
No dose or concentration is given here for some results.

System: ERα and ERβ
Assay: Rating of ER affinity profile from the CHO-ERα and CHO-ERβ bioassays
Format: cell-based, human
Set-up: key: (−) means that it does not satisfy the ER affinity profile of the present invention; (+) means a compound according to the invention, i.e. an agonist for ERα and an antagonist for ERβ
Details: ER affinity profile: agonist for ERα and antagonist for ERβ

Structure (SMILES)	Rating
C#CCCC[C@H]1C[C@]2(C)[C@@H](O)CC[C@H]2[C@@H]2CCc3cc(O)ccc3[C@@H]12 [Compound 6]	+
CC#CCC[C@H]1C[C@]2(C)[C@@H](O)CC[C@H]2[C@@H]2CCc3cc(O)ccc3C12 (some centres unmarked) [Compound 5]	+
C[C@]12C[C@H](CC=C3CC3)[C@@H]3c4ccc(O)cc4CC[C@H]3[C@@H]1CC[C@@H]2O [Compound 7]	−
CCCC[C@H]1C[C@]2(C)[C@@H](O)CC[C@H]2[C@@H]2CCc3cc(O)ccc3[C@@H]12 [Compound 10]	−
CCCCC[C@H]1C[C@]2(C)[C@@H](O)CC[C@H]2[C@@H]2CCc3cc(O)ccc3[C@@H]12 [Compound 11]	+
C[C@]12C[C@H](CCC=C3CC3)[C@@H]3c4ccc(O)cc4CC[C@H]3[C@@H]1CC[C@@H]2O [Compound 8]	+
CCC[C@H]1C[C@]2(C)[C@@H](O)CC[C@H]2[C@@H]2CCc3cc(O)ccc3[C@@H]12 [Compound 9]	−
C#CCC[C@H]1C[C@]2(C)[C@@H](O)CC[C@H]2[C@@H]2CCc3cc(O)ccc3[C@@H]12 [Compound 4]	−
C=CC[C@H]1C[C@]2(C)[C@@H](O)CC[C@H]2[C@@H]2CCc3cc(O)ccc3[C@@H]12 [Compound 1]	−
C=CCC[C@H]1C[C@]2(C)[C@@H](O)CC[C@H]2[C@@H]2CCc3cc(O)ccc3[C@@H]12 [Compound 2]	−
C=CCCC[C@H]1C[C@]2(C)[C@@H](O)CC[C@H]2[C@@H]2CCc3cc(O)ccc3[C@@H]12 [Compound 3]	+
